Values of other authors in patent US11141374B2, “Natural skin care compositions and methods for treating oxidative stress and restoring skin health” (CODEX BEAUTY CORPORATION, priority 2019, dated 2021).
For at least one compound, name, drawing or mass did not settle the structure.

System: MMP-1
Details: human dermal fibroblasts; cited from earlier work

SMILES: Oc1cc(O)c2cc(O)c(-c3cc(O)c(O)c(O)c3)[o+]c2c1 [delphinidin]
- UVB-induced MMP-1 expression: significantly inhibits
